## Primary screen of a compound library

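Whole-cell growth test on Mycobacterium tuberculosis, read after 4 days in a medium based on cholesterol and the lipid DPPC; the read-out is not stated. Compounds at 50 µM. Direction is inferred from retests: higher values go with more growth inhibition. Size under these conditions: about 69,000 compounds, about 370 of them at 50% or above in at least one test.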

Values are the deposited “Percent Effect”, in %. The record does not define 0% and 100%; most values in the screen are far below 50% and negative numbers occur (in some assays of this library far below -100). The compounds are a random part of those screened. Two or more numbers in one place are separate tests of the same structure; such repeats can differ widely.

* CSc1ccc(C(CNC(C)=O)N2CCc3sccc3C2)cc1 (stereo unspecified) | 13.91%
* CN1CCN(C2CCN(Cc3ccc(Cl)cc3)CC2)C1=O | -10.87%
* CCOCC1c2c(ncn2C(C)C)CCN1C(C)C.O=C(O)C(F)(F)F.O=C(O)C(F)(F)F (stereo unspecified) | 11.07%
* O=C(Nc1cccnc1N1CCSCC1)c1ccc2c(c1)CCC2 | 17.11%
* CN1CCC(N2CCC(C(=O)N(C)C)CC2)CC1.O=C(O)C(F)(F)F.O=C(O)C(F)(F)F | -30.74%
* CCOc1ccccc1OCCN(C)Cc1nccn1C | 1.47%
* COCCN1CCOCC12CCN(Cc1ccn(C)n1)CC2.O=C(O)C(F)(F)F.O=C(O)C(F)(F)F | -6.166%
* COCCNCC1(O)CCCN(Cc2ccc(F)c(F)c2)C1=O (stereo unspecified) | -26.32%
* Cc1noc(C)c1CN1CCc2ncnc(-c3ccncc3)c2CC1.O=C(O)C(F)(F)F.O=C(O)C(F)(F)F | -24.37%
* Cc1ccc(Nc2nccc(C3CCN(CC(N)=O)C3)n2)nc1 (stereo unspecified) | -0.7244%
* Cc1ccccc1C1(CN)CCOCC1 | -11.86%
* CCC(CN1CCCC1)n1cncc1-c1cnn(Cc2ccccc2)c1.Cl (stereo unspecified) | -2.927% and -8.022%
* CC(NCc1ccc(Cl)o1)c1nnc2n1CCCC2 (stereo unspecified) | -21.45% and -2.48%
* COc1ccccc1CN1CCN(CCN2CCOC2=O)CC1 | -15.68% and -21.5%
* CCN1CCN(C(=O)c2ccnc(N(C)C)c2)CC1 | -4.785%
* Cc1ccc(CN2CCC3(CC2)CC(c2cccnc2)C(=O)N3C)o1.O=C(O)C(F)(F)F.O=C(O)C(F)(F)F (stereo unspecified) | -0.6536%
* O=C(COc1cccc2c1CCC2=O)NCCOc1ccccc1 | -25.13%
* CC(C)CC(=O)N1CCC2(CC1)OCCO2 | -19.21%
* CC(=O)N1CCCC1c1nnn2cc(NCc3cccnc3)ccc12.O=C(O)C(F)(F)F.O=C(O)C(F)(F)F (stereo unspecified) | -1.414% and -23.68%
* CCN1CCN(C[C@@H]2CN(c3ncccc3C(F)(F)F)C[C@@H]2CO)CC1 | -1.183%
* CCCN(C(=O)CN1CCn2c(nnc2C2CC2)C1)C1=CCCCC1 | -18.41%
* CC(C)Nc1ncnc2c1CCN(C(=O)CN(C)C)CC2 | -49.37%
* CC(C)CCN1Cc2c(C(=O)O)ncn2-c2ccccc2S1(=O)=O | 93.66%
* CNC(=O)[C@@H]1C[C@H](N)CN1Cc1cc2cc(OC)ccc2nc1O | -6.671% and -12.41%
* [H][C@@]12CN(C(=O)N(C)C)C[C@]1([H])C(=O)N(C)C21CCN(C(=O)C(C)C)CC1 | -11.37%
* CCOc1ccc(S(=O)(=O)NCCc2ccc(N(C)C)cc2)cc1F | -21.26%
* NC(=O)N1CCC(NCc2cc(Br)ccc2Cl)CC1 | -3.184%
* O=C(CCc1ccccc1Br)NCC(=O)NCc1ccccc1 | -5.404%
* Cc1cc(C)cc(CNC(c2ccccc2)c2nccn2C)c1 (stereo unspecified) | 12.94%
* O=C(c1ccc(N2CCCC2)nc1)N1CCCC(c2nccs2)C1 (stereo unspecified) | -16.13%
* Cc1ccc(C(=O)N(CCC#N)Cc2ccccn2)cc1C | -8.181% and -2.492%
* COc1ccc(-c2n[nH]cc2CN(C)CCc2scnc2C)c(F)c1 | -4.058%
* [H][C@@]12CS(=O)(=O)C[C@]1([H])N(Cc1nc(C)n[nH]1)CCN2C(=O)C1CCC1 | 20.78%
* CCCS(=O)(=O)C(C)C(=O)Nc1ccc2oc(C3CC3)nc2c1 (stereo unspecified) | 21.65%
* CC(C)c1noc(C(C)N2CCN(Cc3nnc(C4CC4)o3)CC2)n1 (stereo unspecified) | -2.097%
* Cc1cnn(CCNCc2csc(COc3ccccc3)n2)c1 | 16.68%
* Cc1cc(=O)n2nc(Oc3cccc(C(N)=O)c3)sc2n1 | -4.447%
* [H][C@]12CN(Cc3ccc(OC)cc3)C(=O)[C@@]1([H])CN(S(=O)(=O)C1CC1)C2 | 12.48%
* OCC1CCCCN1CCn1ccnc1-c1ccc2c(c1)OCCO2 (stereo unspecified) | 5.774% and -8.076%
* CC(=O)N[C@@H](CC(C)C)C(=O)N1CCC(n2cc(CO)nn2)CC1 | -20.31%
* Cc1ccnc(N2CCC(=O)N(Cc3ccc(F)cc3)C(C(C)C)C2)n1 (stereo unspecified) | -24.16%
* CC(=O)Nc1ncc(S(=O)(=O)Nc2ccc(F)cc2)s1 | -8.184%
* O=C(O)C(F)(F)F.[H][C@@]12COC[C@]1([H])[C@@H](OCC(=O)N(C)C)CN2Cc1ccc2c(c1)OCO2 | -4.067%
* CCCS(=O)(=O)N1CC(=O)N(CCCc2ccccc2)CC(O)C1 (stereo unspecified) | -14.69%
* CCN(CC(=O)NC(C)(C)C)Cc1cccc2c1OCCO2 | 9.433%
* CCCc1noc(CNc2ccc(C(=O)N3CCCC3)cc2C)n1 | -9.336%
* [H][C@@]12C[C@H](C(=O)NCc3ccccc3)[C@@]([H])(CN(S(=O)(=O)N(C)C)C1)O2 | -11.55%

The first 3 entries again:

structure,effect
CSc1ccc(C(CNC(C)=O)N2CCc3sccc3C2)cc1 (stereo unspecified),13.91
CN1CCN(C2CCN(Cc3ccc(Cl)cc3)CC2)C1=O,-10.87
CCOCC1c2c(ncn2C(C)C)CCN1C(C)C.O=C(O)C(F)(F)F.O=C(O)C(F)(F)F (stereo unspecified),11.07

Data taken from ChEMBL document CHEMBL3988442, “University of Dundee, Small-Polar-MMV Screening Library” (2021).